Hit rate of the full screen: of about 580,000 compounds, about 6,100 (1.1%) were called active. Inconclusive results, whose numbers are uncertain, are shown with a selection of clear calls. The call rests on the fitted dose curve; in most records, active means well fitted inhibition curve with a large enough effect; inconclusive means small, poorly fitted or top-dose-only effect, or another doubt; inactive means no such curve, though single readings can be large or run the other way. Potencies of inconclusive entries are doubtful fits and often do not repeat.
Target: Polyunsaturated fatty acid lipoxygenase ALOX12 (Homo sapiens) (UniProt P18054)
Assay: Primary qHTS assay for inhibitors of human arachidonate 12S-lipoxygenase (ALOX12): Round 2
Conditions: purified 12hLO, xylenol orange hydroperoxide absorbance; activity change, negative = inhibition: at 108 µM (top of the series) unless noted
In short: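 Purified human 12hLO (150 nM final) in 25 mM Hepes, 0.01% Triton X-100, pH 7.0 was preincubated 15 min at room temperature with compound. Then 40 uM arachidonic acid was added, 30 min. Hydroperoxide was read by Fe-XO absorbance ratio 573/405 nm.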
On the % scale 0 is the no-effect control and ±100 the full control effect; potency means the concentration at half of the fitted maximal effect.

Amino acid sequences for entries named in this document (tags omitted). A change or cut given only in a name is not applied to a line headed by its entry.
UniProt P18054: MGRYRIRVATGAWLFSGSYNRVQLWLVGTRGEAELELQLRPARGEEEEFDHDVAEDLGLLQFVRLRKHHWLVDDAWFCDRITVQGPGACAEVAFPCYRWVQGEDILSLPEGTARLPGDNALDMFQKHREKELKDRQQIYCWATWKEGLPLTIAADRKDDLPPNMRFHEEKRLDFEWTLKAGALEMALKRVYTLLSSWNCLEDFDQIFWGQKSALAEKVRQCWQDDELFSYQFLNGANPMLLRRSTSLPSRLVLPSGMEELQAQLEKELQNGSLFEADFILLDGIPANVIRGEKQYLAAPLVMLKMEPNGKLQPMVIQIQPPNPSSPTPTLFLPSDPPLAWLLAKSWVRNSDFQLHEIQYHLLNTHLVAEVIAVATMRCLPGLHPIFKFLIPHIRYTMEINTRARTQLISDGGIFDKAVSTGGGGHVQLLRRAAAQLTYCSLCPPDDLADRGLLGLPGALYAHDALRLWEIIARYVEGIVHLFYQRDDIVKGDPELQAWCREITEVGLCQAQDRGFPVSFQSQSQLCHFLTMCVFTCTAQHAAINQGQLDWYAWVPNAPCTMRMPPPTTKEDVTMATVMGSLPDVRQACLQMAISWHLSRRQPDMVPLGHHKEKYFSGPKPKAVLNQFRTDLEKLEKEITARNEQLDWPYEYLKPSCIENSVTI

Compound	Potency	activity change, negative = inhibition
O=c1oc(-c2ccccc2Cl)nc2ccc(Br)cc12	inconclusive: 2.51 µM [inhibitor, full curve, poor fit]	
O=c1cc(-c2ccc(Cl)cc2)oc(=O)[nH]1	inconclusive: 112 µM [inhibitor, single point]	
O=C1CCCC2=C1C(c1cccnc1)C1=C(CCCC1=O)N2		inactive: 43%
N=c1c(C(=O)NCC2CCCO2)cc2c(=O)n3ccccc3nc2n1CCCO (stereo unspecified)	inconclusive: 112 µM [inhibitor, partial curve, poor fit]	
CN(Cc1ccccc1)C(=O)c1ccc(NC(=O)Cc2ccc(NC(=O)C3CCN(C(=O)C4CC4)CC3)cc2)cc1	inconclusive: 35.5 µM [inhibitor, single point]	
COc1ccc(Cn2c(C(=O)O)c(CNCCc3ccco3)c3ccc(C)cc32)cc1	inconclusive: 126 µM [inhibitor, partial curve, poor fit]	
O=C(CN1CCN(C(=O)c2cc(C3CC3)nc3ccccc23)CC1)NC1CC1	inconclusive: 50.1 µM [inhibitor, partial curve, poor fit]	
NC(=O)c1ccsc1NC(=O)COC(=O)/C=C/c1ccc([N+](=O)[O-])cc1		inactive: 2.86%
Cn1nccc1C(=O)NC(=S)Nc1cc(Cl)cc(Cl)c1	inconclusive: 1.58 µM [inhibitor, full curve, poor fit]	
CC(C)NC(=O)N1CCC2(CC1)CC(CC(=O)O)CCO2 (stereo unspecified)	inconclusive: 39.8 µM [inhibitor, partial curve, poor fit]	
Cc1ccc(-c2cc(C(=O)Nc3nccs3)c3ccccc3n2)o1	active: 1.41 µM	
C#Cc1cccc(C(=O)NCc2nc(-c3cccc(NC(=O)c4ccccn4)c3)oc2C)c1		inactive: 5.82%
O=C(CN1CCN(c2ccc(F)cc2)CC1)N1CCC(Cc2ccccc2)CC1	inconclusive: 0.501 µM [inhibitor, full curve]	
O=C(O)c1cccc2c1CCN2C(=O)Nc1ccc(F)cc1		inactive: 27.1%
COc1cc([N+](=O)[O-])ccc1-c1ccc(/C=C2\C(=O)ON=C2c2ccccc2)o1	inconclusive: 15.8 µM [inhibitor, partial curve, poor fit]	
O=S(=O)(c1ccc(SCc2cc(Cl)c3c(c2)OCCCO3)nc1)N1CCCC1	inconclusive: 100 µM [inhibitor, single point]	
CCOC(=O)c1ccc(N2C(=O)CC(C(=O)OC)=C2C)cc1		inactive: 0%
CCCCN(CC)C(=O)c1cc2c(C)cc(C)c(C)c2[nH]1	inconclusive: 50.1 µM [inhibitor, partial curve, poor fit]	
N#Cc1cccc(S(=O)(=O)Nc2c(NC3CCCC3)c3ccccc3oc2=O)c1	inconclusive: 112 µM [inhibitor, single point]	
CCOc1ccc(OCCOC(=O)Cc2coc3cc4c(cc23)CCC4)cc1		inactive: -27.5%
Cc1cc(Cl)cc(Cl)c1OCC(=O)NCc1ccco1	inconclusive: 4.47 µM [inhibitor, full curve, poor fit]	
Cn1ncc2c(NCc3ccccc3Cl)nc(NCCO)nc21	inconclusive: 89.1 µM [inhibitor, partial curve, poor fit]	

Whole records, looked up by structure:
`O=C1CCCC2=C1C(c1cccnc1)C1=C(CCCC1=O)N2` reads activity change, negative = inhibition: inactive: 43%
`N=c1c(C(=O)NCC2CCCO2)cc2c(=O)n3ccccc3nc2n1CCCO` (stereo unspecified) reads Potency: inconclusive: 112 µM [inhibitor, partial curve, poor fit]
`CCOc1ccc(OCCOC(=O)Cc2coc3cc4c(cc23)CCC4)cc1` reads activity change, negative = inhibition: inactive: -27.5%

(next part)

Compound	Potency	activity change, negative = inhibition
CN1CC(=O)N(C2CCCNCC2)Cc2c(NCc3cccs3)ncnc21 (stereo unspecified)	inconclusive: 7.94 µM [inhibitor, full curve, poor fit]	
O=C(OCC1C(COC(=O)c2ccncc2)C1(Cl)Cl)c1ccncc1 (stereo unspecified)		inactive: -16.3%
C#CCOc1ccc(/C=C(/C#N)c2cccc(F)c2)cc1OC	inconclusive: 25.1 µM [inhibitor, partial curve, poor fit]	
CC(C)OCCOc1ccc2oc(-c3ccco3)cc(=O)c2c1	inconclusive: 11.2 µM [inhibitor, full curve]	
COC(=O)CSc1nnc(-c2sc3cc(OC)ccc3c2Cl)n1C		inactive: 9.28%
COc1ccc(C(=O)/C=C/c2ccc(O)cc2)c2c1CC(O)C(C)(C)O2 (stereo unspecified)	inconclusive: 70.8 µM [inhibitor, single point]	
CC(=O)c1ccc(NC(=O)C2CC(=O)N(C(C)(C)C)C2)cc1 (stereo unspecified)		inactive: -27.8%
O=C(Nc1c(Cl)cccc1Cl)Oc1cccc2cccnc12	inconclusive: 44.7 µM [inhibitor, partial curve, poor fit]	
CCCC(c1nnnn1Cc1cccs1)N1CCN(C)CC1 (stereo unspecified)	inconclusive: 22.4 µM [inhibitor, partial curve, poor fit]	
CNC(=O)[C@@H]1CN(C(=O)CCc2c[nH]c3ccccc23)C[C@H]1CO	inconclusive: 14.1 µM [inhibitor, full curve]	
CC(C)NC(=O)c1cccc2c(-c3ccc(F)c(F)c3)coc12		inactive: -15.1%
N#C/C(=C\c1ccc(N2CCOCC2)o1)C(=O)NC1CCCCC1	inconclusive: 50.1 µM [inhibitor, partial curve, poor fit]	
CCCCNc1c(-c2cccc(Sc3ccc(OC)cc3)c2)nc2ccccn12	inconclusive: 39.8 µM [inhibitor, partial curve]	
CC(=O)c1ccc(N2Cc3ccccc3C2)cc1	inconclusive: 25.1 µM [inhibitor, single point]	
CCN1CCC2(CC1)N=C(c1ccc(F)cc1)C(=S)N2C(=O)c1ccc(C)cc1	active: 50.1 µM	
COc1cccc(N2C(=O)c3cc4oc(C)cc4n3CC2(C)C(=O)NC2CCCCCC2)c1 (stereo unspecified)	inconclusive: 35.5 µM [inhibitor, partial curve, poor fit]	
Cc1nc(-c2c3n(c(=O)n(CC(=O)Nc4ccc(C)c(F)c4)c2=O)CCCCC3)no1	inconclusive: 70.8 µM [inhibitor, partial curve]	
NC(=S)Nc1nc2ccccc2s1	active: 6.31 µM	
O=C(N/N=C/c1ccc([N+](=O)[O-])o1)c1ccccc1NS(=O)(=O)c1cccs1	inconclusive: 79.4 µM [inhibitor, partial curve, poor fit]	
CC(C)NC(=S)N/N=C1\CCCc2ccccc21	inconclusive: 4.47 µM [inhibitor, full curve, poor fit]	
COc1cc2c(cc1OC)CN(C(=O)CN1CCN(S(=O)(=O)c3ccc(C)c(C)c3)CC1)CC2	inconclusive: 89.1 µM [inhibitor, partial curve, poor fit]	
CSc1ccc(C2CC(=O)Nc3c2c(=O)[nH]c2ncnn32)cc1 (stereo unspecified)	inconclusive: 28.2 µM [inhibitor, partial curve, poor fit]	

Compound	Potency	activity change, negative = inhibition
Cc1ccc(C(C)C)c(OCCCCN2CCNCC2)c1	inconclusive: 0.398 µM [inhibitor, full curve, poor fit]	
C=CCNC(=O)NC(=O)COC(=O)c1cc(-c2cccs2)nc2ccccc12	inconclusive: 35.5 µM [inhibitor, partial curve, poor fit]	
Cc1ccc(-c2csc(NC(=O)c3cccc(S(=O)(=O)N4CCN(C)CC4)c3)n2)cc1		inactive: 0%
CCN(C(=O)COC(=O)/C=C/c1ccco1)C1CCCCC1		inactive: 169%
CC1(C)CC(=O)C2=C(C1)OC(N)=C(C#N)C2c1ccc(Br)o1 (stereo unspecified)	inconclusive: 44.7 µM [inhibitor, partial curve, poor fit]	
CCCC(=O)Nc1ccc2oc(-c3cccnc3)nc2c1	inconclusive: 0.224 µM [inhibitor, full curve, poor fit]	
CCOC(=O)c1c(NC(=O)COC(=O)Cc2n[nH]c(=O)c3ccccc23)sc(C(=O)N(C)C)c1C	inconclusive: 56.2 µM [inhibitor, partial curve, poor fit]	
FC(F)(F)c1cccc(-c2cc(C3=CCOCC3)c3cncn3c2)c1	inconclusive: 20 µM [inhibitor, full curve]	
Cc1ccc(C(=O)NCC(c2ccc3c(c2)OCO3)N2CCN(C)CC2)cc1C (stereo unspecified)	inconclusive: 3.98 µM [inhibitor, single point]	
CC(=O)NCCC(=O)N1CCOc2c(O)cc(-c3cccc(Cl)c3)cc2C1	inconclusive: 10 µM [inhibitor, full curve]	
NNC(=O)c1cc2c(N3CCC(Cc4ccccc4)CC3)ncnc2s1		inactive: -3.08%
NC(=S)N/N=C/c1ccccc1O		inactive: 0%
Cc1ccc2c(COC(=O)/C=C/c3ccccc3)cc(=O)oc2c1		inactive: -17.9%
O=C(COC(=O)c1ccc(S(=O)(=O)N2CCCC2)cc1)Nc1ccc(N2CCOCC2)cc1	inconclusive: 17.8 µM [inhibitor, partial curve]	
O=c1cc(Cn2nnc(-c3ccccc3)n2)nc2sccn12	inconclusive: 44.7 µM [inhibitor, partial curve, poor fit]	
O=C(O)c1cccc(NC2=Nc3cccc4cccc2c34)c1	inconclusive: 3.98 µM [inhibitor, full curve, poor fit]	
Cc1nn(C)c2nc(NCCCOC3CCCC3)sc12		inactive: 1.19%
CCCN1CCC2(CCN(C(=O)Nc3ccccc3)CC2)Oc2ccccc21	inconclusive: 44.7 µM [inhibitor, partial curve, poor fit]	
COc1ccccc1NC(=O)C1=C(C)NC(Nc2nc3ccccc3o2)=NC1c1ccccc1 (stereo unspecified)		inactive: -9.94%
Cc1ccc(C(=O)NNC(=S)NC(=O)c2ccc(Cl)cc2Cl)cc1	inconclusive: 79.4 µM [inhibitor, partial curve, poor fit]	
Cc1c(CCOC(=O)c2cc([N+](=O)[O-])cc([N+](=O)[O-])c2)sc[n+]1CC(=O)c1ccc(Br)cc1	inconclusive: 44.7 µM [inhibitor, partial curve, poor fit]	
Cc1cc2cc(CNC(=O)C3CCCC3)ccc2n1C	inconclusive: 35.5 µM [inhibitor, partial curve, poor fit]	

— PubChem BioAssay AID1671190 (National Center for Advancing Translational Sciences (NCATS), 2021)
